These are yes or no findings as the source states them, for the method shown. For part of these data: Binding seen in cells or lysates may run through a third protein. Some results given as binding are weak or reduced against the parent protein; the word gives no strength. For part of these data: Sequences can lack the tags named with a protein.

By UniProt entry, the sequences of proteins in these tests, tags left out.
UniProt Q06219: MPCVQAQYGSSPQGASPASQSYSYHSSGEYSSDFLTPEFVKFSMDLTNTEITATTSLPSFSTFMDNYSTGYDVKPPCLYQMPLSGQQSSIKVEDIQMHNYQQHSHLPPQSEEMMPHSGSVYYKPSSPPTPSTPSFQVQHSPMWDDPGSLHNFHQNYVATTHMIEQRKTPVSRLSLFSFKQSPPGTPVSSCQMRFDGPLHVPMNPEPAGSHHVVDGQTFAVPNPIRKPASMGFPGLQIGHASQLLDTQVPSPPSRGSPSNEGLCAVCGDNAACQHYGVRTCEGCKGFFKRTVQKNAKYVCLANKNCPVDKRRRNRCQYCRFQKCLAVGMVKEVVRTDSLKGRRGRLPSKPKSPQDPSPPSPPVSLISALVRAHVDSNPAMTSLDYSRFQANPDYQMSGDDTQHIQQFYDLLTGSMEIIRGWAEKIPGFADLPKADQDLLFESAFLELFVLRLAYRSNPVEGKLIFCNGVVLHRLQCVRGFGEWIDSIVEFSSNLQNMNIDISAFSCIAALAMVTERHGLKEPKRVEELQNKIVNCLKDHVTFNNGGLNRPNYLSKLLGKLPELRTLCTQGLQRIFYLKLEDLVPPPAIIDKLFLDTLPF

Assay [1] addresses Flag-Nurr1 (Flag-tagged full-length Nurr1) (UniProt Q06219). In words: coimmunoprecipitation from MN9D nuclear extract with anti-V5, Western blot with anti-Flag. Background: Immunoblotting shows a protein as a band on a membrane.
For assay [2], the target named is Gal4NLBD (Gal4 DNA-binding domain fused to the full-length Nurr1 ligand binding domain) (UniProt P04386). In words: mammalian two-hybrid, luciferase reporter, MN9D cells.
Assay [3] has as its target endogenous Nurr1 protein (mouse substantia nigra lysate) (mouse) (UniProt Q06219). In words: coimmunoprecipitation from mouse SN lysate with anti-Nurr1, Western blot with anti-NuIP.

B1: NuIP-V5 (protein, not shown: small tags and cut ends)
chain: MASVPAEAETRQRLLRTVKKEVKQIMEEAVTRKFVHEDSSHIISFCAAVEACVLHGLRRRAAGFLRSNKIAALFMKVGKGFPPAEELSRKVQELEQLIESARNQIQGLQENVRKLPKLPNLSPLAIKHLWIRTALFERVLDKIVHYLVENSSKYYEKEALLMDPVDGPILASLLVGPCALEYTKMKTADHFWTDPSADELVQRHRIHSSHLRQDSPTKRPALCIQKRHSSGSMDDRPSISARDYVESLHQNSRATLLYGKNNVLVQPRDDMEAVPGYLSLHQTADVMTLKWTPNQLMNGSVGDLDYEKSVYWDYAVTIRLEEIVYLHCHQQVDSGGTVVLVSQDGIQRPPFRFPKGGHLLQFLSCLENGLLPHGQLDPPLWSQRGKGKVFPKLRKRSPQGSSESTSSDKEDDEATDYVFRIIYPGTQSEFVPQDLMDVSMNNLPPLWQPSPRKSSCSSCSQSGSADGGSTNGCNHERAPLKLLCDNMKYQILSRAFYGWLAYCRHLSTVRTHLSALVNHMIVSPDLPCDAGQGLTASIWEKYIQDSTTYPEQELLRLIYYGGVQPEIRRAVWPFLLGHYQFGMTEMERKEVDEQIHACYAQTMSEWLGCEAIVRQRERESHAAALAKCSSGASLDSHLHRMLHRDSTISNESSQSCSSGRQNLRLQSDSSSSTQVFESVDEVEQTEAEGRSEEKHPKIPNGNPANGTCSPDSGHPSSHNFSSGLSEHSEPSLSTEDSVLDAQRSLPAVFRPGDSSVEDGQSSEATTSRDEAPREELAVQDSLESDLLANESLEEFMSIPGSLDVALPEKDGAVMDGWPGEADKPSRADSEDNLSEEPEMESLFPALASLAVTSSANNEASPVSSSGVTYSPELLDLYTVNLHRIEKDVQRCDRSYWYFTAANLEKLRNIMCSYIWQHIEIGYVQGMCDLLAPLLVILDDEALAFSCFTELMKRMNQNFPHGGAMDTHFANMRSLIQILDSELFELMHQNGDYTHFYFCYRWFLLDFKRELVYDDVFSVWETIWAAKHVSSAHYVLFIALALVEVYRDIILENNMDFTDIIKFFNEMAERHNAKQILQLARDLVHKVQILIENK
Consider B1, for which, in assay [1], the binding entry was “binds”.

B2: VP16-NuIP (HSV VP16 activation domain fused to full-length NuIP) (protein)
chain: MASVPAEAETRQRLLRTVKKEVKQIMEEAVTRKFVHEDSSHIISFCAAVEACVLHGLRRRAAGFLRSNKIAALFMKVGKGFPPAEELSRKVQELEQLIESARNQIQGLQENVRKLPKLPNLSPLAIKHLWIRTALFERVLDKIVHYLVENSSKYYEKEALLMDPVDGPILASLLVGPCALEYTKMKTADHFWTDPSADELVQRHRIHSSHLRQDSPTKRPALCIQKRHSSGSMDDRPSISARDYVESLHQNSRATLLYGKNNVLVQPRDDMEAVPGYLSLHQTADVMTLKWTPNQLMNGSVGDLDYEKSVYWDYAVTIRLEEIVYLHCHQQVDSGGTVVLVSQDGIQRPPFRFPKGGHLLQFLSCLENGLLPHGQLDPPLWSQRGKGKVFPKLRKRSPQGSSESTSSDKEDDEATDYVFRIIYPGTQSEFVPQDLMDVSMNNLPPLWQPSPRKSSCSSCSQSGSADGGSTNGCNHERAPLKLLCDNMKYQILSRAFYGWLAYCRHLSTVRTHLSALVNHMIVSPDLPCDAGQGLTASIWEKYIQDSTTYPEQELLRLIYYGGVQPEIRRAVWPFLLGHYQFGMTEMERKEVDEQIHACYAQTMSEWLGCEAIVRQRERESHAAALAKCSSGASLDSHLHRMLHRDSTISNESSQSCSSGRQNLRLQSDSSSSTQVFESVDEVEQTEAEGRSEEKHPKIPNGNPANGTCSPDSGHPSSHNFSSGLSEHSEPSLSTEDSVLDAQRSLPAVFRPGDSSVEDGQSSEATTSRDEAPREELAVQDSLESDLLANESLEEFMSIPGSLDVALPEKDGAVMDGWPGEADKPSRADSEDNLSEEPEMESLFPALASLAVTSSANNEASPVSSSGVTYSPELLDLYTVNLHRIEKDVQRCDRSYWYFTAANLEKLRNIMCSYIWQHIEIGYVQGMCDLLAPLLVILDDEALAFSCFTELMKRMNQNFPHGGAMDTHFANMRSLIQILDSELFELMHQNGDYTHFYFCYRWFLLDFKRELVYDDVFSVWETIWAAKHVSSAHYVLFIALALVEVYRDIILENNMDFTDIIKFFNEMAERHNAKQILQLARDLVHKVQILIENK
B2: the binding result in assay [2] is listed as “binds”.

B3: endogenous NuIP protein (mouse substantia nigra lysate) (protein)
chain: MASVPAEAETRQRLLRTVKKEVKQIMEEAVTRKFVHEDSSHIISFCAAVEACVLHGLRRRAAGFLRSNKIAALFMKVGKGFPPAEELSRKVQELEQLIESARNQIQGLQENVRKLPKLPNLSPLAIKHLWIRTALFERVLDKIVHYLVENSSKYYEKEALLMDPVDGPILASLLVGPCALEYTKMKTADHFWTDPSADELVQRHRIHSSHLRQDSPTKRPALCIQKRHSSGSMDDRPSISARDYVESLHQNSRATLLYGKNNVLVQPRDDMEAVPGYLSLHQTADVMTLKWTPNQLMNGSVGDLDYEKSVYWDYAVTIRLEEIVYLHCHQQVDSGGTVVLVSQDGIQRPPFRFPKGGHLLQFLSCLENGLLPHGQLDPPLWSQRGKGKVFPKLRKRSPQGSSESTSSDKEDDEATDYVFRIIYPGTQSEFVPQDLMDVSMNNLPPLWQPSPRKSSCSSCSQSGSADGGSTNGCNHERAPLKLLCDNMKYQILSRAFYGWLAYCRHLSTVRTHLSALVNHMIVSPDLPCDAGQGLTASIWEKYIQDSTTYPEQELLRLIYYGGVQPEIRRAVWPFLLGHYQFGMTEMERKEVDEQIHACYAQTMSEWLGCEAIVRQRERESHAAALAKCSSGASLDSHLHRMLHRDSTISNESSQSCSSGRQNLRLQSDSSSSTQVFESVDEVEQTEAEGRSEEKHPKIPNGNPANGTCSPDSGHPSSHNFSSGLSEHSEPSLSTEDSVLDAQRSLPAVFRPGDSSVEDGQSSEATTSRDEAPREELAVQDSLESDLLANESLEEFMSIPGSLDVALPEKDGAVMDGWPGEADKPSRADSEDNLSEEPEMESLFPALASLAVTSSANNEASPVSSSGVTYSPELLDLYTVNLHRIEKDVQRCDRSYWYFTAANLEKLRNIMCSYIWQHIEIGYVQGMCDLLAPLLVILDDEALAFSCFTELMKRMNQNFPHGGAMDTHFANMRSLIQILDSELFELMHQNGDYTHFYFCYRWFLLDFKRELVYDDVFSVWETIWAAKHVSSAHYVLFIALALVEVYRDIILENNMDFTDIIKFFNEMAERHNAKQILQLARDLVHKVQILIENK
Turning to B3, the binding result in assay [3] is given as “binds”.
